From patent US20060167115A1, “Compositions for the preservation of timber” (priority 2003, published 2006)
Some entries share one result that the patent states for a list of compounds. Some ranges recur; such a range may be that of the whole group of compounds.

These molecules were tested on Coniophora puteana (assay: Biological screening test (modified EN 113) of TBBA homologues). Details: waterborne; 8 weeks exposure.
Assay type: cell-based
Experimental: (§1) The following fungi were employed: Coniophora puteana (Brown rot fungus) and Poria placenta (Brown rot fungus). The following preservatives were tested: TBBF (waterborne), TBBE (waterborne), TBBZ (waterborne) and TBBS (waterborne).
(§2) Five concentrations of each preservative were tested: 3.0%, 2.0%, 1.0%, 0.1% and 0.05% (w/w). All wood blocks were of Scots pine sapwood (Pinus sylvestris) with a volume of 1 cm^3 (10 mm×10 mm×10 mm). Five replicates were used for each test specimen type and six virulence control specimens for each fungus and for each preservative were used as follows: • Treated test specimens: 2 (fungi)×5 (preservative concentrations)×1 (preservative)×5 (replicates)=50 test blocks • Untreated test specimens (for exposure alongside […] test blocks): 2 (fungi)×5 (preservative concentrations)×1 (preservative)×5 (replicates)=50 test blocks • Treated check test specimens: 1 (preservative)×5 (concentrations)×5 (replicates)=25 blocks
(§3) For all actives/preservatives in the test: • Virulence control specimens: 2 (fungi)×6 (replicates)=12 test blocks
(§4) After block treatments were completed, all the blocks were sterilized using ionizing radiation according to the conditions set out in European standard EN 113. The incubation period for the test (length of block exposure to the chosen basidiomycete fungi) was 8 weeks.
(§5) Weight changes for particular waterlogged specimens, when these were clearly unrepresentative of a group, were not included in the mean figures presented.
With `Oc1c(Br)cc(Cc2cc(Br)c(O)c(Br)c2)cc1Br` [TBBF, Bis(4-hydroxy-3,5-dibromophenyl)methane] the “Protective Effect (concentration of the active ingredient in solution)” value (from here on “Protective Effect”) was 0.1-1.0%.
For `O=S(=O)(c1cc(Br)c(O)c(Br)c1)c1cc(Br)c(O)c(Br)c1` [TBBS, 4,4′-Sulfonyldi(2,6-dibromophenol)], the “Protective Effect” value was 0.1-1.0%.
`Oc1c(Br)cc(C2(c3cc(Br)c(O)c(Br)c3)CCCCC2)cc1Br` [TBBZ, 4,4′-Cyclohexylidenebis(2,6-dibromophenol)] was tested, and the “Protective Effect” value was 0.1-1.0%.

These molecules were tested on Poria placenta in the same assay as above. Details: waterborne; 8 weeks exposure.
Assay type: cell-based
Experimental: as §1, §2, §3, §4, §5
`Oc1c(Br)cc(Cc2cc(Br)c(O)c(Br)c2)cc1Br` [TBBF, Bis(4-hydroxy-3,5-dibromophenyl)methane] was tested, and the “Protective Effect” value was 0.1-1.0%.
For `O=S(=O)(c1cc(Br)c(O)c(Br)c1)c1cc(Br)c(O)c(Br)c1` [TBBS, 4,4′-Sulfonyldi(2,6-dibromophenol)], the “Protective Effect” value was 0.1-1.0%.
In the case of `Oc1c(Br)cc(C2(c3cc(Br)c(O)c(Br)c3)CCCCC2)cc1Br` [TBBZ, 4,4′-Cyclohexylidenebis(2,6-dibromophenol)], the “Protective Effect” value is reported as 0.1-1.0%.
